{"source": "patent US20190298804A1", "about": "“ACTIVATION OF THE ENDOGENOUS ILEAL BRAKE HORMONE PATHWAY FOR ORGAN REGENERATION AND RELATED COMPOSITIONS, METHODS OF TREATMENT, DIAGNOSTICS, AND REGULATORY SYSTEMS” (VOLANT HOLDINGS GMBH, priority 2013, published 2019)", "origin": "cited, not measured here", "key": {"[1]": {"system": "Otsuka Long-Evans Tokushima Fatty (OLETF) rats", "settings": "cited from earlier work; for rats diabetic on OGTT: 100 mg/kg/day from 5 weeks of age"}, "[2]": {"system": "T2D patients", "settings": "human, in vivo; cited from earlier work"}}, "note": "Like-named read-outs stand apart in the source and are kept apart here. At least one compound was matched to its structure with a doubt left."}
{"smiles": "CC[C@H](C)C(=O)O[C@H]1C[C@H](O)C=C2C=C[C@H](C)[C@H](CC[C@@H](O)C[C@@H](O)CC(=O)O)[C@H]21", "note": "[pravastatin]", "values": [{"measurement": "rats diabetic on OGTT", "setting": "[1]; at 20 weeks (untreated 40%)", "value": 0, "unit": "%"}, {"measurement": "rats diabetic on OGTT", "setting": "[1]; at 30 weeks (untreated 89%)", "value": 30, "unit": "%"}, {"measurement": "left ventricular diastolic function", "setting": "[1]; from 20 weeks", "value": "remained normal"}, {"measurement": "overexpression of endothelial nitric oxide synthase (eNOS)", "setting": "[1]; heart, 30 weeks", "value": "2.5 fold of control LETO"}]}
{"smiles": "CN(CCOc1ccc(CC2SC(=O)NC2=O)cc1)c1ccccn1", "note": "(stereo not drawn) [Rosiglitazone]", "values": [{"measurement": "fasting serum insulin levels reduced by", "setting": "[2]", "value": 51, "unit": "%"}, {"measurement": "serum LPS reduced by", "setting": "[2]", "value": 35, "unit": "%"}]}
